Experimental findings from publication PMC7170535 are described below.

Results are given in words; binding and its absence hold for the method and conditions named.

Experiment [1] addresses complement C3 (human). As to the kind of experiment: SPR; ~2,000 RU C3 immobilised on a CM5 chip; rHC1 as analyte; HEPES-buffered saline pH 7.5, 0.05% Tween 20, 2 mM MnCl2; both purified. (In general: Surface plasmon resonance follows binding to a sensor surface in real time, without labels.)
Experiment [2] addresses complement C3 (human). The experiment can be described thus: SPR; ~2,000 RU C3 immobilised on a CM5 chip by amide coupling; rHC1 or IαI as analyte; HEPES-buffered saline pH 7.5, 0.05% Tween 20, 2 mM Mg2+, 2 mM Mn2+; multicycle kinetics, 1:1 Langmuir; both purified.

B1: recombinant inter-α-inhibitor heavy chain 1 (rHC1), D298A MIDAS mutant (protein, UniProt P19827 35-672)
chain: SKSSEKRQAVDTAVDGVFIRSLKVNCKVTSRFAHYVVTSQVVNTANEAREVAFDLEIPKTAFISDFAVTADGNAFIGDIKDKVTAWKQYRKAAISGENAGLVRASGRTMEQFTIHLTVNPQSKVTFQLTYEEVLKRNHMQYEIVIKVKPKQLVHHFEIDVDIFEPQGISKLDAQASFLPKELAAQTIKKSFSGKKGHVLFRPTVSQQQSCPTCSTSLLNGHFKVTYDVSRDKICDLLVANNHFAHFFAPQNLTNMNKNVVFVIAISGSMRGQKVKQTKEALLKILGDMQPGDYFDLVLFGTRVQSWKGSLVQASEANLQAAQDFVRGFSLDEATNLNGGLLRGIEILNQVQESLPELSNHASILIMLTDGDPTEGVTDRSQILKNVRNAIRGRFPLYNLGFGHNVDFNFLEVMSMENNGRAQRIYEDHDATQQLQGFYSQVAKPLLVDVDLQYPQDAVLALTQNHHKQYYEGSEIVVAGRIADNKQSSFKADVQAHGEGQEFSITCLVDEEEMKKLLRERGHMLENHVERLWAYLTIQELLAKRMKVDREERANLSSQALQMSLDYGFVTPLTSMSIRGMADQDGLKPTIDKPSEDSPPLEMLGPRRTFVLSALQPSPTHSSSNTQRLPDRVTGVDTD
Regarding B1, the binding entry with complement C3 (human) [1] and with complement C3 (human) [2] was “no binding (tested: 1–31.25 μM)” in each case.
